± gives the uncertainty stated by the source. Many of these values have a large error.
Test: self-splicing fitness, log relative to wild type (ln ratio); higher = more splicing; Tetrahymena group I intron in knt gene, E. coli kanamycin selection, DiMSum; sequences stand for … in CUCUCU…GGAGGGAAAAGUUAUCAGGCAUGCACCUGGUAGCUAGUCUUUAAACCAAUAGAUUGCAUCGGUUUAAAAGGCAAGACCGUCAAAUUGCGGGAAAGGGGUCAACAGCCGUUCAGUACCAAGUCUCAGGGGAAACUUUGAGAUGGCCUUGCAAAGGGUAUGGUAAUAAGCUGACGGACAUGGUCCUAACCACGCAGCCAAGUCCUAAGUCAACAGAUCUUCUGUUGAUAUGGAUGCAGUUCACAGACUAAAUGUCGGUCGGGGAAGAUGUAUUCUUCUCAUAAGAUAUAGUCGGACCUCUCCUUAAUGGGAGCUAGCGGAUGAAGUGAUGCAACACUGGAGCCGCUGGGAACUAAUUUGUAUGCGAAAGUAUAUUGAUUAGUUUUGGAGUACUCGUGGUCG
How it was run: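 Colonies from six replicate transformations of E. coli BL21(DE3) were pooled and amplicon-sequenced on an Illumina HiSeq 2500. The library placed an intron with all eight P1ex-region nucleotides randomised inside the knt kanamycin-resistance gene on pET-22b(+), and cells grew overnight at 37°C or 30°C on LB agar with or without 25 μg/mL kanamycin (plus 100 μg/mL carbenicillin, 50 μM IPTG, 0.2% rhamnose). Fitness is the DiMSum error-weighted combination of wild-type-normalised replicate fold changes, kanamycin versus none.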

Sequence | self-splicing fitness (ln) (30 °C) | self-splicing fitness (ln) (37 °C)
UCAUAGCAAUAUUACGCCAC | -3.54 ± 0.61 | -3.86 ± 1
UCGCAGCAAUAUUACGUCUC | -4.83 ± 0.72 | 
GGCGAGCAAUAUUACGACCG | -0.74 ± 0.28 | -0.371 ± 0.26
CCUUAGCAAUAUUACGACCC |  | -2.28 ± 0.78
AAGUAGCAAUAUUACGCUGC | -4.46 ± 1 | 
AGUGAGCAAUAUUACGACCG | -2.53 ± 0.66 | 
UAAAAGCAAUAUUACGCCUC |  | -2.32 ± 0.64
UCUGAGCAAUAUUACGAAGC | -4 ± 0.74 | -1.48 ± 0.37
UGUCAGCAAUAUUACGCUCG | -0.552 ± 0.16 | 0.987 ± 0.32
AACGAGCAAUAUUACGUCUU | -1.33 ± 0.074 | -0.279 ± 0.093
AACCAGCAAUAUUACGAAGA | -2.02 ± 0.081 | -0.639 ± 0.082
AGGAAGCAAUAUUACGUCAG | -2.97 ± 0.25 | -2.41 ± 0.33
AACUAGCAAUAUUACGUAUG | -3.11 ± 0.11 | -1.22 ± 0.11
CCCAAGCAAUAUUACGUCUC | -2.71 ± 0.15 | -2.25 ± 0.26
CUCGAGCAAUAUUACGAGUU | -4.82 ± 0.59 | 
GGCUAGCAAUAUUACGUAGU | -3.29 ± 0.17 | -2.04 ± 0.2
CAGUAGCAAUAUUACGCGGG | -3.1 ± 0.16 | -1.91 ± 0.17
CUCGAGCAAUAUUACGUAAU | -3.14 ± 0.62 | 
GAUUAGCAAUAUUACGCGCU | -1.18 ± 0.53 | 
AGAGAGCAAUAUUACGGGAG |  | -2.9 ± 1.1
GAUUAGCAAUAUUACGCCCU |  | -0.471 ± 0.64
GGAUAGCAAUAUUACGAAAA |  | -0.728 ± 0.54
UAGGAGCAAUAUUACGAAAG | -3.75 ± 1 | 
UGCUAGCAAUAUUACGAGCA | -3.92 ± 0.6 | 
AUAUAGCAAUAUUACGAAGC |  | -2.86 ± 0.61
UGUUAGCAAUAUUACGAUAC | -2.86 ± 0.64 | -1.12 ± 0.55

Sequence | self-splicing fitness (ln) (30 °C) | self-splicing fitness (ln) (37 °C)
CCCAAGCAAUAUUACGGACC | -2.96 ± 0.18 | -2.29 ± 0.26
AUCAAGCAAUAUUACGGGCA | -1.42 ± 0.098 | -0.95 ± 0.098
GAUUAGCAAUAUUACGAAAA | -0.952 ± 0.69 | -1.65 ± 0.67
CGGGAGCAAUAUUACGGCCG |  | -3.32 ± 0.74
GAGGAGCAAUAUUACGCAUC | -1.32 ± 0.71 | 
CCGUAGCAAUAUUACGCCCG | -0.871 ± 0.15 | -0.0634 ± 0.21
GUGCAGCAAUAUUACGCUAC | -3.08 ± 0.74 | -3.19 ± 0.6
UCCGAGCAAUAUUACGGUAC |  | -1.84 ± 0.66
CUCGAGCAAUAUUACGUUCA |  | -3.31 ± 0.52
AUUGAGCAAUAUUACGCUGU | -1.97 ± 0.25 | -1.22 ± 0.5
UGGGAGCAAUAUUACGGACC | -2.97 ± 0.53 | -1.79 ± 0.53
AGGGAGCAAUAUUACGUCGA | -2.36 ± 1.2 | -1.84 ± 0.52
GGUGAGCAAUAUUACGGCAG |  | -1.08 ± 0.61
GAGCAGCAAUAUUACGAAAA |  | -3.16 ± 0.6
CGAGAGCAAUAUUACGCAAA |  | -2.74 ± 0.62
CAUGAGCAAUAUUACGAAGC | -3.46 ± 1.1 | 
UGUGAGCAAUAUUACGAUAU | -2.31 ± 0.22 | -1.66 ± 0.37
GUUAAGCAAUAUUACGCAGC | -4.71 ± 0.51 | -2.59 ± 0.54
UAAGAGCAAUAUUACGAGAA | -1.99 ± 0.71 | 
UGCUAGCAAUAUUACGUUAC | -5.2 ± 1 | 
AACGAGCAAUAUUACGUCCG | -4.9 ± 1 | 
AAGUAGCAAUAUUACGCCGC |  | -2.62 ± 0.54
UUUUAGCAAUAUUACGUGGG | -1.79 ± 0.2 | -2.27 ± 0.27
CCAUAGCAAUAUUACGGGAC | -4.29 ± 0.52 | 
GAGGAGCAAUAUUACGAUUG | -3.08 ± 0.54 | 

No new results follow: an excerpt of the list.
Sequence | self-splicing fitness (ln) (30 °C) | self-splicing fitness (ln) (37 °C)
AGGGAGCAAUAUUACGUCGA | -2.36 ± 1.2 | -1.84 ± 0.52
GGUGAGCAAUAUUACGGCAG |  | -1.08 ± 0.61

Source: the supplement of paper PMC7877785
